One compound from paper PMC9023744, “The Cytochrome P450 OxyA from the Kistamicin Biosynthesis Cyclization Cascade is Highly Sensitive to Oxidative Damage” (Frontiers in Chemistry, 2022) can be followed below.

Amino acid sequences for entries named in this document (tags omitted).
UniProt A0A1V0AG67, entry or part of it: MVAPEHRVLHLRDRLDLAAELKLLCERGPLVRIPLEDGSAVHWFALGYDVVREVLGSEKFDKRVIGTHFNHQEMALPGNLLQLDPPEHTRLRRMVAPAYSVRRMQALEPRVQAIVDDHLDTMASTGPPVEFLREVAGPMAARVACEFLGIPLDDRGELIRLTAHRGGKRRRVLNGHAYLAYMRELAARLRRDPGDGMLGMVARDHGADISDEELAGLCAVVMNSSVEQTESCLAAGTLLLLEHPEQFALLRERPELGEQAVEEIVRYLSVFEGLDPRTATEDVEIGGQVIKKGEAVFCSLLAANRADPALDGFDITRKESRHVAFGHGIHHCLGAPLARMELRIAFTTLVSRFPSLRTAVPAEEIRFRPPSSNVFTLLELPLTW

In one assay the target is T1, OxyCkis.
T1 construct: gene OxyC
Conditions: 50 mM Tris-HCl pH 8, 30°C; 2.5 µM enzyme; DMSO.

For the next assay, the target named is T2, OxyAkis ([Actinomadura] parvosata, UniProt A0A1V0AG67).
T2 construct: gene BKM31_54160; pET28a, His-tagged, expressed in E. coli Arctic Express; Ni-NTA, anion exchange, size exclusion
As to the kind of experiment: UV-visible difference spectroscopy titration, one-site model. Type of assay: binding.

Consider `Clc1ccccc1C(c1ccccc1)(c1ccccc1)n1ccnc1` [clotrimazole], for which the Kd at OxyCkis amounted to 22.5 ± 3.2 µM; on OxyAkis it was 272 ± 88.4 µM.

Broadly, the Kd is the free concentration of one partner at which half of the binding sites on the other are occupied at equilibrium, for simple one-to-one binding. A lower Kd goes with higher affinity.
